Data source: PubChem BioAssay AID1259308 (NCATS, 2017)

Assay: 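Knock-downs that increase output of a recombinant reporter protein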 (primary screen)
System: human HEK293 embryonic kidney cells stably expressing firefly luciferase (HEK-CMV-Luc2-Hygro)
Reagent: single siRNA against human genes, 0.8 pmol siRNA per well
Timing: 72 h
Measurement: 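Reporter luminescence and viable-cell signal on separate replicate plates, given as percent of non-targeting control and median/MAD z-scores, plus per-cell luciferase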
Reading the numbers: total luciferase, z-score and total luciferase, % of control: higher = more reporter protein produced; luciferase per cell, z-score: higher = more reporter output per viable cell; viable cells, % of control: higher = more viable cells
Hit rule: 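An siRNA counts as active if its total luciferase robust z-score exceeds 3; genes with two or more such siRNAs out of three were retested with fresh siRNAs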
Meaning of the calls: active = raised luciferase; inactive = no rise
The whole screen tested about 59,000 reagents; this is a random part of them. About 1,510 of all reagents (2.6%) count as active. 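Calls use total luciferase alone and ignore viability, so some active siRNAs may act by altering cell number.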 Reagents against one gene are numbered here.

no.	gene symbol	reagent	total luciferase, z-score	total luciferase, % of control	luciferase per cell, z-score	viable cells, % of control	Outcome
1	TAF5L	1	1.76	117	1.34	91.8	inactive
2	TAF5L	2	0.0865	83.6	0.326	85.7	inactive
3	TAF5L	3	1.04	102	1.25	82.4	inactive
4	ATP2B1-AS1	1	0.485	91.5	0.526	89.1	inactive
5	ATP2B1-AS1	2	-0.294	76	-0.302	92	inactive
6	ATP2B1-AS1	3	0.574	93.3	-0.131	108	inactive
7	ETV3	1	-0.302	75.9	0.0302	84.1	inactive
8	ETV3	2	-0.018	81.5	0.714	75.5	inactive
9	ETV3	3	-1.53	51.6	-1.46	84.5	inactive
10	SUPT4H1	1	-0.908	63.8	-0.852	89.3	inactive
11	SUPT4H1	2	-1.24	57.3	-0.812	79.2	inactive
12	SUPT4H1	3	0.306	88	0.0787	96.3	inactive
13	CLEC1B	1	-1.25	57.1	-1.06	84.4	inactive
14	CLEC1B	2	0.973	101	0.296	105	inactive
15	CLEC1B	3	-0.218	77.5	-0.582	101	inactive
16	ACOT8	1	1.58	113	2.64	63.2	inactive
17	ACOT8	2	-0.0635	80.6	-0.313	97.8	inactive
18	ACOT8	3	-0.00712	81.7	0.591	78.2	inactive
19	DENND3	1	1.07	103	0.798	93.3	inactive
20	DENND3	2	-1.14	59.3	-1.75	105	inactive
21	DENND3	3	0.741	96.6	0.657	90.8	inactive
22	RAB42P1	1	-0.0965	80	-0.243	95.3	inactive
23	RAB42P1	2	-2.26	36.9	-1.86	67.4	inactive
24	RAB42P1	3	0.494	91.7	0.673	85.8	inactive
25	PKN2	1	0.488	91.6	0.559	88.3	inactive
26	PKN2	2	0.39	89.7	-0.192	105	inactive
27	PKN2	3	0.172	85.3	-0.474	108	inactive
28	ITGA5	1	-1.29	56.2	-1.09	83.7	inactive
29	ITGA5	2	0.52	92.2	0.143	99.3	inactive
30	ITGA5	3	-0.217	77.6	-0.602	102	inactive
31	ABCD4	1	-0.568	70.6	-1.25	110	inactive
32	ABCD4	2	-0.297	76	-1.17	116	inactive
33	ABCD4	3	1.13	104	1.5	78.6	inactive
34	PGLYRP4	1	0.12	84.3	0.147	90.6	inactive
35	PGLYRP4	2	1.31	108	0.763	98.7	inactive
36	PGLYRP4	3	0.44	90.6	0.115	98.3	inactive
37	ZNF224	1	0.916	100	1.15	82.7	inactive
38	ZNF224	2	0.354	88.9	0.0167	98.9	inactive
39	ZNF224	3	-0.0126	81.6	-0.343	99.8	inactive
40	TLR7	1	1.71	116	1.37	90.3	inactive
41	TLR7	2	0.213	86.1	0.545	83.4	inactive
42	TLR7	3	0.642	94.7	0.99	81.5	inactive
43	SYT6	1	0.579	93.4	0.655	87.8	inactive
44	SYT6	2	-2.26	36.8	-2.17	72.9	inactive
45	SYT6	3	1.05	103	0.566	99	inactive
46	P3H2	1	-1.1	60	-0.4	74.5	inactive
47	P3H2	2	0.112	84.1	-0.265	101	inactive
48	P3H2	3	-0.159	78.7	-0.499	100	inactive
49	GRAMD1A	1	-0.385	74.2	-0.915	106	inactive
50	GRAMD1A	2	0.875	99.3	0.452	98.5	inactive
51	GRAMD1A	3	-0.1	79.9	-0.575	104	inactive
52	UGT2B15	1	-0.8	66	-1.48	109	inactive
53	UGT2B15	2	0.365	89.1	-0.0436	101	inactive
54	UGT2B15	3	-1.97	42.7	0.509	41.7	inactive
55	MKKS	1	-0.39	74.1	-0.191	87.1	inactive
56	MKKS	2	-0.0422	81	0.321	83.2	inactive
57	MKKS	3	-0.164	78.6	-0.148	91.3	inactive

Part of the list above, reduced to “total luciferase, % of control”.
ITGA5 #1 = 56.2
ITGA5 #2 = 92.2
ITGA5 #3 = 77.6
ABCD4 #1 = 70.6
ABCD4 #2 = 76
